Columns and labels:
[1] = system: HCV replicon cells Huh 9B; experiment: HCV replicon assay (luciferase); type: cell-based; conditions: Hepatitis C virus, reduction of replicon level by 50% vs untreated cell control, 72 h
Procedure: (§1) HCV replicon cells Huh 9B (ReBlikon), containing the firefly luciferase—ubiquitin—neomycin phosphotransferase fusion protein and EMCV-IRES driven HCV polyprotein with cell culture adaptive mutations.
(§2) Cells were cultured at 37° C. in a 5% CO2 environment and split twice a week on seeding at 2×10^6 cells/flask on day 1 and 1×10^6 3 days later. G418 at 0.5 mg/ml was added to the culture medium but not the assay medium. The culture medium consisted of DMEM with […] glucose and glutamax (Gibco 61965-026) supplemented with 1×non-essential amino acids (Invitrogen 11140-035), penicillin (100 IU/ml)/streptomycin (100 μg/ml) (Invitrogen 15140-122), FCS (10%, 50 ml) and […] (Invitrogen 10131-027) & 10% Australian foetal calf serum (Invitrogen 10099-141).
A flask of cells was trypsinised and a cell count carried out. Cells were diluted to 100,000 cells/ml and 100 μl of this used to seed one opaque white 96-well plate (for the replicon assay) and one flat-bottomed clear plate (for the tox assay) for every five compounds to be tested for IC50. Wells G12 and H12 were left empty in the clear plate as the blank. […]
The M injector of the microplate luminometer (Lmax, Molecular Devices) was primed with 5×300 μl injections of the diluted substrate. […] The signal was measured using a 1 second delay followed by a 4 second measurement programme. […]

Sequences of proteins named here, by UniProt entry; tags and fusion partners are left off. Residues count along the entry.
UniProt P26663, 2420-2989: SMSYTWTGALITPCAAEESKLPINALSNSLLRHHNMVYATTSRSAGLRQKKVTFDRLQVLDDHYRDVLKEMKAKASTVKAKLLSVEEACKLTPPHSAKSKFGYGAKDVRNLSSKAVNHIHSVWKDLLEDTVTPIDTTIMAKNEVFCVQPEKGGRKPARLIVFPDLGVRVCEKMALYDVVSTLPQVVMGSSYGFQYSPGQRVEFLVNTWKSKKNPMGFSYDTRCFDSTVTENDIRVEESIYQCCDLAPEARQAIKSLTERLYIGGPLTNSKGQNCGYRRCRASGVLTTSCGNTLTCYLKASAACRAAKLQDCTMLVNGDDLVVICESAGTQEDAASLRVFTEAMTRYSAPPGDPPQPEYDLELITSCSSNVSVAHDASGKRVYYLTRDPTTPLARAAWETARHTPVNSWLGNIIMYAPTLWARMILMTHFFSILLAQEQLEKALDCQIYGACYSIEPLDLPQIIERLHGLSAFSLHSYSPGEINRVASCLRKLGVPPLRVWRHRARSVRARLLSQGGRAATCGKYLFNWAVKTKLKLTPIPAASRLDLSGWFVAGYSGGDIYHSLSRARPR

[2] = molecular target: T1, Recombinant HCV polymerase (BK strain) (Hepatitis C virus genotype 1b, UniProt P26663); experiment: HCV polymerase enzyme assay (radiometric [33P]-UTP incorporation); type: biochemical, HCV 1b
T1 construct: Recombinant HCV polymerase (BK strain) was expressed and purified from E. coli with a 21 amino acid C-terminal deletion; His6; made in house; host or cells: E. coli
Procedure: Compounds were tested for inhibition of HCV polymerase using a radiometric [^33P]-UTP incorporation assay and a biotinylated U13:PolyA primer:template RNA substrate.
Recombinant HCV polymerase (BK strain) was expressed and purified from E. coli with a 21 amino acid C-terminal deletion and a His6-tag. The general assay buffer consisted of 20 mM Tris (pH 7.5), 25 mM KCl, 5 mM MgCl2, 3 mM DTT, 0.5 mg/ml BSA, 0.01% Tween20. The standard reaction, in 96 well plates, contained 10 μl of diluted compound, 50 μl of substrate and 40 μl of enzyme. Compounds, supplied as 10 mM stocks in DMSO, were diluted initially in neat DMSO, and subsequently buffer was added to give a DMSO concentration of 30%; 10 μl of this was added to the assay plate to give a final concentration in the 100 μl assay of 3% DMSO. The biotinylated U13:PolyA RNA substrate was pre-annealed with 40 μM 5′-biotinylated U13 (Dharmacon) and 213 μg/ml PolyA (Amersham Biosciences) in water incubated at 70° C. for 5 minutes before being cooled on ice. Substrate (50 μl) was added in buffer to give a final concentration in the 100 μl assay of 125 nM biotinylated U13:0.63 μg/ml PolyA and 200 nM UTP with 0.4 μCi [^33P]-UTP per well (Perkin Elmer). […] The plates were then washed three times with phosphate-buffered saline containing 0.05% Tween20 in an automated plate washer to remove unincorporated [^33P]-UTP, and then counted in a […]

[3] = system: HCV replicon cells Huh 9B; type: cell-based; conditions: concentration reducing total cell area by 50% relative to DMSO controls; 72 h
Procedure: as §1, §2
A flask of cells was trypsinised and a cell count carried out. […]
The clear plate was stained with 100 μl 0.5% methylene blue in 50% ethanol at room temperature for lh, followed by solvation of the absorbed methylene blue in 100 μl per well of 1% lauroylsarcosine. Absorbance of the plate was measured on a microplate spectrophotometer (Molecular Devices) and the absorbance for each concentration of compound expressed as a proportion of the relative DMSO control. […]

COCCOc1ncc(F)cc1C(=O)NC1N=C(c2c(Cl)cc(Cl)cc2OC)c2ccccc2NC1=O (stereo not drawn) [Example 54, N-(5-(2,4-Dichloro-6-methoxyphenyl)-2-oxo-2,3-dihydro-1H-benzo[e][1,4]diazepin-3-yl)-5-fluoro-2-(2-methoxyethoxy)nicotinamide]
IC50 [1]: 18.4 nM
IC50 [2]: 108 nM
Replicon Assay Value TD50 [3]: >25 µM
